Values quoted from earlier work as cited in US20200187507A1, “INOCULANTS INCLUDING PLANT GROWTH PRODUCING RHIZOBACTERIA (PGPR) AND INSECTIDES FOR PROMOTING PLANT GROWTH AND HEALTH” (Auburn University, priority 2018, published 2020).
At least one compound was matched to its structure with a doubt left.

Tested on: Pseudomonas fluorescens
Settings: imidacloprid as cotton seed treatment; cited from earlier work

Q: For `O=S1OCC2C(CO1)C1(Cl)C(Cl)=C(Cl)C2(Cl)C1(Cl)Cl` (stereo not shown) [endosulfan], which “Pseudomonas fluorescens populations when mixed with pesticide or extract” value is on record?
A: remained stable
